Data as given in PubChem BioAssay AID1259424 (University of Nebraska Medical Center, 2018)

Assay: 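Rank knockdowns across the genome by resemblance to the KSR1 depletion profile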 (primary screen)
Cell system: human HCT116 colon cancer cells
Knock-down reagent: siRNA pool against human genes, 50 nM
Read-out: 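Log2 levels of six mRNAs (branched-DNA multiplex), adjusted by two reference genes and the non-targeting median, then scored against the average KSR1 knockdown pattern as Pearson r and euclidean distance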
Reading the numbers: mean correlation with KSR1 profile: higher = expression change more like KSR1 knockdown
This is an unselected part of about 14,000 deposited reagents. 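Higher correlation or smaller distance means closer resemblance to KSR1 loss; control wells, including KSR1 knockdowns, recur on many plates.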 Further read-outs or replicates are left out here. No sequences are given here. The record does not give: the time to read-out.

gene symbol | PubChem SID | mean correlation with KSR1 profile
MAP4K2 | SID363995550 | 0.658
GOLGA2 | SID363995465 | 0.548
ITSN2 | SID363997099 | 0.377
SRGAP3 | SID363999144 | -0.273
RAPGEF3 | SID363996946 | -0.189
HS3ST2 | SID363996894 | -0.165
KCNK2 | SID363998658 | 0.284
NUP160 | SID364005287 | -0.526
TMEM41B | SID364005257 | -0.266
SLC30A5 | SID364002594 | 0.177
MYH1 | SID363996823 | 0.332
PRKN | SID363995533 | -0.468
PIGN | SID363998237 | -0.698
CA5B | SID363997916 | -0.31
SOCS1 | SID363994812 | 0.908
FAM50B | SID363998081 | -0.622
BTNL3 | SID363997487 | -0.405
PRSS12 | SID363994697 | -0.244
COL2A1 | SID363993058 | 0.179
FBH1 | SID364004187 | -0.49
GPR21 | SID363996211 | -0.849
MYOF | SID363998528 | 0

5 of these entries, set out differently.
| gene symbol | PubChem SID | mean correlation with KSR1 profile |
| --- | --- | --- |
| PRSS12 | SID363994697 | -0.244 |
| COL2A1 | SID363993058 | 0.179 |
| FBH1 | SID364004187 | -0.49 |
| GPR21 | SID363996211 | -0.849 |
| MYOF | SID363998528 | 0 |

The list goes on:
gene symbol | PubChem SID | mean correlation with KSR1 profile
IGSF9B | SID364005332 | -0.174
FOXN1 | SID363994673 | 0.226
CHST8 | SID364002453 | -0.6
TP73 | SID363996333 | 0.334
ZC2HC1C | SID364002941 | 0.108
TRIM29 | SID363998050 | 0.0153
PTGER4 | SID363992242 | 0.534
B4GALT2 | SID363994844 | -0.106
CDV3 | SID364000353 | -0.661
SDS | SID363997607 | -0.427
MAP2K6 | SID363993916 | 0.535
JAK1 | SID363993427 | 0.634
PTHLH | SID363993976 | -0.668
TMEM204 | SID364002904 | 0.812
CYC1 | SID363993129 | 0.411
SMG8 | SID364000825 | 0.0163
ROPN1L | SID364003695 | -0.199
INHBA | SID363993393 | 0.235
ASCL2 | SID363996097 | -0.185
MBD2 | SID363994983 | 0.609
KAZN | SID364005214 | -0.677
USP21 | SID363998347 | -0.552
TIMM10 | SID363998331 | 0.345
MRPS18A | SID364000811 | -0.13
ST6GALNAC6 | SID363998521 | 0.324
PTK2 | SID363996502 | 0.616
SLC10A1 | SID363994198 | -0.713
CASR | SID363991719 | 0.726
CNTN1 | SID363993057 | 0.229
ZNF212 | SID363998178 | 0.0247
UTS2R | SID364001276 | 0.475
GOLGA8A | SID363999249 | -0.55
CLIP4 | SID364002982 | 0.55
HNF4G | SID363995143 | -0.0622
MYH16 | SID364005581 | 0.211
IL11 | SID363991957 | 0.171
ALOX5 | SID363991997 | -0.161
ZNF256 | SID363996654 | 0.144
TGFB1 | SID363991960 | -0.591
ST8SIA3 | SID363999690 | -0.407
FARSB | SID363996577 | 0.331
